# Experimental data taken from PMC3044755.
# Amino acid sequences for entries named in this document (tags omitted). A change or cut given only in a name is not applied to a line headed by its entry.
# UniProt Q8C6B2: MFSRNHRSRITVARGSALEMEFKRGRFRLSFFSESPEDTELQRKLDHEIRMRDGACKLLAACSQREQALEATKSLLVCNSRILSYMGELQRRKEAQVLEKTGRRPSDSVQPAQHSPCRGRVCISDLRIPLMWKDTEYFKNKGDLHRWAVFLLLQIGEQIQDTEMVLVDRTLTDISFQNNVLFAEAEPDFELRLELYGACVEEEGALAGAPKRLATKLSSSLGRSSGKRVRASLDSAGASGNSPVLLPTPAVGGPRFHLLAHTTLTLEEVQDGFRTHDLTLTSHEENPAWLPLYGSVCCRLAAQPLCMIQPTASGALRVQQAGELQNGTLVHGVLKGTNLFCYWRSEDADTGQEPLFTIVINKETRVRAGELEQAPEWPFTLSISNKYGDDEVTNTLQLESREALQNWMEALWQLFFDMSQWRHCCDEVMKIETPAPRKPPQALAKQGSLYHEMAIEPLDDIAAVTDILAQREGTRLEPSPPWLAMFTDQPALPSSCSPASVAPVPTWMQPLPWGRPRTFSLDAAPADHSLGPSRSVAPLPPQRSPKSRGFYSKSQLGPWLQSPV
# UniProt P61586: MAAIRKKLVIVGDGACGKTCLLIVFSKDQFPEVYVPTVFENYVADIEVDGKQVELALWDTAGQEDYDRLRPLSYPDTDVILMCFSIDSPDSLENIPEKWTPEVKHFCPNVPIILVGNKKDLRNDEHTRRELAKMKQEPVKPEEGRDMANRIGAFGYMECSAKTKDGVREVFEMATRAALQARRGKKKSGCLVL
# No constants are given. Whether binding was seen depends on the method and setting. In cells and extracts the contact can be indirect. A result given as binding can be weak or reduced; the word gives no strength.
# Molecular target: GST-tagged Rhotekin Rho-binding domain (RBD) (UniProt Q8C6B2)
# Test: pull-down; 30-60 ug purified GST-RBD on glutathione-sepharose beads rotated 30 min at 4°C with nuclear or PNS fractions of HEK293 cells in 50 mM Tris pH 7.6, 500 mM NaCl, 1% Triton X-100, 0.1% SDS, 0.5% deoxycholate, 10 mM MgCl2; blotted for RhoA; cells untreated, irradiated (10 Gy), myc-Net1 overexpression or Net1 siRNA; only the target purified
substance,measurement,value
"RhoA, endogenous (GTP-bound active form) (from UniProt P61586 1-193)",binding,binds
